The other results are listed elsewhere or left out.
These targets were tested with COc1ccc(Cn2ccc3cc(C)c(C(=O)NO)cc32)cc1 (assay: dose-dependent thermal stabilisation call (2D-TPP, DLPTP, 10% FDR) (binary (1 = stabilised)); higher = stabilised by the compound). Conditions: system: HL-60 intact cells; concentration range 0.04-10 µM.
Procedure: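 2D thermal proteome profiling in intact HL-60 cells treated with BRD-3811 (0, 0.04, 0.29, 2, 10 uM) for 90 min at 37 C, then heated 3 min at one of 12 temperatures (42-63.9 C). Soluble protein was quantified by TMT10 MS. The value is the DLPTP call of the paper: dose-dependent thermal stabilisation over all temperatures at 10% FDR (F-test of a dose-response against a flat model); one experiment, one call per tested protein.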

Chains of the proteins cited; added tags and fusions are not shown. Lines headed by an entry give the natural chain unless they say otherwise; changes in a name come on top.
UniProt Q8NEZ5: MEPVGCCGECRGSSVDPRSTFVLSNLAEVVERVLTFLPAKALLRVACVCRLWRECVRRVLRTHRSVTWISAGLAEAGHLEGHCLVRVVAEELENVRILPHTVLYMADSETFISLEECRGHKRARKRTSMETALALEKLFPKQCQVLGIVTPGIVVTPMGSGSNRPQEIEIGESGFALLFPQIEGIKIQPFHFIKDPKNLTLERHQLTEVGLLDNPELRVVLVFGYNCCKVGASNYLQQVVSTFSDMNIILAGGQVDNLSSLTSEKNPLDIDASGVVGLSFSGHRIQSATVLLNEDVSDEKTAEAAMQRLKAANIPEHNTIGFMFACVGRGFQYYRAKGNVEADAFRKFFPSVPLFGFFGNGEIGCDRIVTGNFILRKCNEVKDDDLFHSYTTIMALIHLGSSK
UniProt Q9Y3D0: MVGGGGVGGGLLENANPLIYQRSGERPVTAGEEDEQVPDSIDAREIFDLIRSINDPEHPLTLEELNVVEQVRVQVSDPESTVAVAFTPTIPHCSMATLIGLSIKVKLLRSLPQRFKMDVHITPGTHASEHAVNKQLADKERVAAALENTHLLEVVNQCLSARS
UniProt Q92538, whole entry: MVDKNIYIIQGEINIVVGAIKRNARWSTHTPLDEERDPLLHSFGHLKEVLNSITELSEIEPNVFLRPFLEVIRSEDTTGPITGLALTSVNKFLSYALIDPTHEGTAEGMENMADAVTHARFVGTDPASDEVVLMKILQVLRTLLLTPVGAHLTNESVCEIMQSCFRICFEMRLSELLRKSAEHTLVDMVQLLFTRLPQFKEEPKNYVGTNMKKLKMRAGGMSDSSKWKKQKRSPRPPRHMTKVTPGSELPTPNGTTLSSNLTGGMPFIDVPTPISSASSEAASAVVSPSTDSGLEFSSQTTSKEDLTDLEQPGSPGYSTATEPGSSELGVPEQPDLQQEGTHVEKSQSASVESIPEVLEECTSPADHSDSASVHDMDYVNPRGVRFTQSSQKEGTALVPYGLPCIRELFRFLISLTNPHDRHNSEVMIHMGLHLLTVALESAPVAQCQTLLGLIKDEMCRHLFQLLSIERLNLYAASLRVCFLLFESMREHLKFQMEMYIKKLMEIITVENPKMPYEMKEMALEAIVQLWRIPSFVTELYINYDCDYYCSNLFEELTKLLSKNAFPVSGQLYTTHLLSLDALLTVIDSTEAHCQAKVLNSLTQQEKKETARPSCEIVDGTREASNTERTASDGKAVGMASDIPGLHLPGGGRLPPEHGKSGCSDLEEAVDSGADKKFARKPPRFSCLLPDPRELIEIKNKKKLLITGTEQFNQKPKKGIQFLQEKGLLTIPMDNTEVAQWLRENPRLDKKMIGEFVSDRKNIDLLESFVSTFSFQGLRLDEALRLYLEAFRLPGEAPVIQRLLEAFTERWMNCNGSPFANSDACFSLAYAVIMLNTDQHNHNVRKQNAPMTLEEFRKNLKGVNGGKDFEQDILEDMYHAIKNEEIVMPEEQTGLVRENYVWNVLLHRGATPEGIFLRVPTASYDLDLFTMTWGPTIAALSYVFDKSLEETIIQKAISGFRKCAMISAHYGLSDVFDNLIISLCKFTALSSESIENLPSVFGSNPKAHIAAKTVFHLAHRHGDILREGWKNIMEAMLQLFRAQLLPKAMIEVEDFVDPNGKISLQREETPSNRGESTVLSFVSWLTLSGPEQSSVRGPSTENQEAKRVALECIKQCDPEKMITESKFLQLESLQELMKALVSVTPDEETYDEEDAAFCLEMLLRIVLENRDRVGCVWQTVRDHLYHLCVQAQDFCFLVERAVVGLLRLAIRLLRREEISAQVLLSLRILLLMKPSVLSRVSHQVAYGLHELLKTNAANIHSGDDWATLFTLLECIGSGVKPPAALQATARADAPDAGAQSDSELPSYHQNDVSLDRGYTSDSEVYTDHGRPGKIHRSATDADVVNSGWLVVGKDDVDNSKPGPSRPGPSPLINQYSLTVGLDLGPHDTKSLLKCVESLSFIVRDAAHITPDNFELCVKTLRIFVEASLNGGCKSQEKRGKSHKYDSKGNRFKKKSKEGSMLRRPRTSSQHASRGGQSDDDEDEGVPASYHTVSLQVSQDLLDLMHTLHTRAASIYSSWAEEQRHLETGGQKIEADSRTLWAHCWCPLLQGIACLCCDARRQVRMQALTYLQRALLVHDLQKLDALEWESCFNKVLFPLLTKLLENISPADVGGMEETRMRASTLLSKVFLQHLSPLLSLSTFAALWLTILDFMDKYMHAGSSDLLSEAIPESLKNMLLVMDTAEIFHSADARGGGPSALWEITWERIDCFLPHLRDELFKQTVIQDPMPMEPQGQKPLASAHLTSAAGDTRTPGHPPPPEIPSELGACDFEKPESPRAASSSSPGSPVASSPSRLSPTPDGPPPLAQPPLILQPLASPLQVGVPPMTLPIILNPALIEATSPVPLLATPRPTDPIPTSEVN
UniProt Q14435: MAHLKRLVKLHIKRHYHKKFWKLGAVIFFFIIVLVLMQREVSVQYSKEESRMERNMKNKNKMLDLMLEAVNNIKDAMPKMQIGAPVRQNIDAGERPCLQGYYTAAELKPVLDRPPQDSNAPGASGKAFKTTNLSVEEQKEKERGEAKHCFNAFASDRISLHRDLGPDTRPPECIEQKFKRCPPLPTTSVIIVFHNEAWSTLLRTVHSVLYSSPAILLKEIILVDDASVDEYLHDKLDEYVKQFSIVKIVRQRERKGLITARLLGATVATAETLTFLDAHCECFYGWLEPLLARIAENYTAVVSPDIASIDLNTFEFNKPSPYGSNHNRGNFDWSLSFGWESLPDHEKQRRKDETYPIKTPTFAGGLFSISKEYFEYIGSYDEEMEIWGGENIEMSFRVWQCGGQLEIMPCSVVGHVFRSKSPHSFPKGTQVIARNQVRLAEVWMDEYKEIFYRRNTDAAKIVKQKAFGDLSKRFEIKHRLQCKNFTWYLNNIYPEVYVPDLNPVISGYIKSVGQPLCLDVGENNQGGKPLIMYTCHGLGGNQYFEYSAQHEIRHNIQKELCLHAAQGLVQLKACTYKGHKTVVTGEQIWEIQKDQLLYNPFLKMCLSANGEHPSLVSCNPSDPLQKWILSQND
UniProt P22083, whole entry: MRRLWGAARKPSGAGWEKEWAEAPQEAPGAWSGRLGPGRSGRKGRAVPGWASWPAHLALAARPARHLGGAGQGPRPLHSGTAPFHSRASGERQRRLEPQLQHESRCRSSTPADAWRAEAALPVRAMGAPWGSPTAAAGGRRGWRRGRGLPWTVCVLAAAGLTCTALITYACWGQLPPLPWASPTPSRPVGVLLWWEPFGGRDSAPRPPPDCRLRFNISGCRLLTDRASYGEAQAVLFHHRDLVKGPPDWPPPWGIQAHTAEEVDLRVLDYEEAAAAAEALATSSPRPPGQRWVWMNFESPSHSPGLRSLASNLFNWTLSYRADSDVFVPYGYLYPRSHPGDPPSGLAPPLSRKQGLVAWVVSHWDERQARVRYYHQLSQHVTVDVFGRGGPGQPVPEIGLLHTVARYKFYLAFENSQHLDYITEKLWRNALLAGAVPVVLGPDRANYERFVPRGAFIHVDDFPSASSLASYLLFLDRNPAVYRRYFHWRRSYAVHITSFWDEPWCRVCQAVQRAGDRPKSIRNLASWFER
UniProt P37268: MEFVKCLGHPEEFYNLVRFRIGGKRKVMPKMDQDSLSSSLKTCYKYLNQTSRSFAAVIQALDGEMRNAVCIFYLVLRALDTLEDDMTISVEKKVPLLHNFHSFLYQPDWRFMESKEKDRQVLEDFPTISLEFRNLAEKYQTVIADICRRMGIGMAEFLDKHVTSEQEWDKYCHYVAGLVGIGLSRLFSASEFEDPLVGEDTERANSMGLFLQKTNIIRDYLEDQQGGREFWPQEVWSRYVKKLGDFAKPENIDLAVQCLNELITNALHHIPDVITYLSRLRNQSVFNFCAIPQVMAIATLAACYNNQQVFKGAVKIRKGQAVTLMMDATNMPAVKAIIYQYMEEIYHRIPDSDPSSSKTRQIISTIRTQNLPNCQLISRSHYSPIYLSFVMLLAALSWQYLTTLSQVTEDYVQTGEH
UniProt Q9UIM3: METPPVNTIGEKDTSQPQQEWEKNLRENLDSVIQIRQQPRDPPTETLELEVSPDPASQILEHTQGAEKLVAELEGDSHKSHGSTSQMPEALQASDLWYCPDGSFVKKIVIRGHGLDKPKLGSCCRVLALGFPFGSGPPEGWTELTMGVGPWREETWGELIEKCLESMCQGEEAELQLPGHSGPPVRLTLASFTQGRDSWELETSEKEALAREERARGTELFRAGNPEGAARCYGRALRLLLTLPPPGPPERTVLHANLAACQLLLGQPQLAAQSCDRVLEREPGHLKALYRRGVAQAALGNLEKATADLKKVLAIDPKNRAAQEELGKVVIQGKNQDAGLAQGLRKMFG
UniProt Q14691: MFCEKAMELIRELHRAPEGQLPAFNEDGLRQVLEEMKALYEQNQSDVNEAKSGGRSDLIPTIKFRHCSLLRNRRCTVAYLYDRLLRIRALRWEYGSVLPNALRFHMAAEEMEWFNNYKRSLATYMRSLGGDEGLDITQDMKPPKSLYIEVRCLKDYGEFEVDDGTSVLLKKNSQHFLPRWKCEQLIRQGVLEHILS
UniProt Q6Y7W6: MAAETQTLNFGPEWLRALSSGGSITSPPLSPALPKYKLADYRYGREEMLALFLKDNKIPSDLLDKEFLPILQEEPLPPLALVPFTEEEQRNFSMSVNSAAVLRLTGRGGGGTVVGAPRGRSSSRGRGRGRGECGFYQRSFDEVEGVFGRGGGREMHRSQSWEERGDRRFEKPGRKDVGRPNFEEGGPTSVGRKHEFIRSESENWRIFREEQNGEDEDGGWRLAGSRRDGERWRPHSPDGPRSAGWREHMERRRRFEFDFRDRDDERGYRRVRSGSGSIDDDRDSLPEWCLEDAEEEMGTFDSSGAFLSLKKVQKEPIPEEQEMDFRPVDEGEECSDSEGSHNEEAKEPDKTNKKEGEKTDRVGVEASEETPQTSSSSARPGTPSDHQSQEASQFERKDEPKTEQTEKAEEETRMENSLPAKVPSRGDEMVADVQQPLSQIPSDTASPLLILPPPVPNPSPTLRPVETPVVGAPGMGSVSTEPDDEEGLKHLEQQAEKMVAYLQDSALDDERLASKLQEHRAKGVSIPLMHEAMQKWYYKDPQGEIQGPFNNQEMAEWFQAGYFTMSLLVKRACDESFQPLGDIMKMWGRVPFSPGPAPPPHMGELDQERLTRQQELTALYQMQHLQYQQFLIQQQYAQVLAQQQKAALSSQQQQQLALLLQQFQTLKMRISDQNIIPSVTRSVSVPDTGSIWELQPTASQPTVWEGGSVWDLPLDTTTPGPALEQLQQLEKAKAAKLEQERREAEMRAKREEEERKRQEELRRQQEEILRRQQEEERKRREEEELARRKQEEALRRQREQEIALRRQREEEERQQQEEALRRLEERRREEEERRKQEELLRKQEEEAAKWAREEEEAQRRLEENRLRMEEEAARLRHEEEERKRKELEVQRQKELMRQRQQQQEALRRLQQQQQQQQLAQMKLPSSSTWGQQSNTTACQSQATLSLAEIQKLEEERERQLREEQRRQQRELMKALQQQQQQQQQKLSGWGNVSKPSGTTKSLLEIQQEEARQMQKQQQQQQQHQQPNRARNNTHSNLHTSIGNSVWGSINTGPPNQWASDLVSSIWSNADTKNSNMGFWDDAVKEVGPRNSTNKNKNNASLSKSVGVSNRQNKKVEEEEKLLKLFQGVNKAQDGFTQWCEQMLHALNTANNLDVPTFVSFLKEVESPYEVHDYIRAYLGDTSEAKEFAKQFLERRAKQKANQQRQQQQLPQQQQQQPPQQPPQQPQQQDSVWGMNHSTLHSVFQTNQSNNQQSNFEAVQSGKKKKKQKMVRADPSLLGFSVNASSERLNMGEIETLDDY
UniProt Q9UJ14: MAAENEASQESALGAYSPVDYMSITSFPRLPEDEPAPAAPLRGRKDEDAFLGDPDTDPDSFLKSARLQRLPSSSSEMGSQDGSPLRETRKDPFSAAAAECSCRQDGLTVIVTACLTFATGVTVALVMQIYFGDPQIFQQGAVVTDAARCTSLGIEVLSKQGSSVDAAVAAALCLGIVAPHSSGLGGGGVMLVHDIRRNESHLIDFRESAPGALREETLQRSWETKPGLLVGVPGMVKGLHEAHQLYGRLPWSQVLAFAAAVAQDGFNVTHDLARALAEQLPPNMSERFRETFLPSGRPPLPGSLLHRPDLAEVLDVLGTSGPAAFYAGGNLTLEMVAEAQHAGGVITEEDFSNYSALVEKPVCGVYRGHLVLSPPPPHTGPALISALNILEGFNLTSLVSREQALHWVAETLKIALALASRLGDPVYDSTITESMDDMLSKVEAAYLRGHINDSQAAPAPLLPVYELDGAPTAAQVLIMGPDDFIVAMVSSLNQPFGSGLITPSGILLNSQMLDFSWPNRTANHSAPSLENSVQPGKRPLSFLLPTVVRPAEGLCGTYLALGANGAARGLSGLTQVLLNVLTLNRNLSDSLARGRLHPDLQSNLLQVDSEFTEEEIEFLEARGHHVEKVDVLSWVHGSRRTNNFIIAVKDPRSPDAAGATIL

Target	dose-dependent thermal stabilisation call
GLTP (UniProt Q9NZD2)	inactive: 0
GALNT6 (UniProt Q8NCL4)	inactive: 0
GINS2 (UniProt Q9Y248)	inactive: 0
FUNDC2 (UniProt Q9BWH2)	inactive: 0
FBXO22 (UniProt Q8NEZ5)	inactive: 0
FANCI (UniProt Q9NVI1)	inactive: 0
FANCG (UniProt O15287)	inactive: 0
FLJ21865	inactive: 0
FAM96B (UniProt Q9Y3D0)	inactive: 0
FCHSD2 (UniProt O94868)	inactive: 0
GBF1 (UniProt Q92538)	inactive: 0
GALNT3 (UniProt Q14435)	inactive: 0
FBXL12 (UniProt Q9NXK8)	inactive: 0
FBXO7 (UniProt Q9Y3I1)	inactive: 0
GEMIN4 (UniProt P57678)	inactive: 0
FUT4 (UniProt P22083)	inactive: 0
GCAT (UniProt O75600)	inactive: 0
FKBP4 (UniProt Q02790)	inactive: 0
FLG2 (UniProt Q5D862)	inactive: 0
FAM54B (UniProt Q9H019)	inactive: 0

Fetched one by one from above:
Target	dose-dependent thermal stabilisation call
FBXL12 (UniProt Q9NXK8)	inactive: 0
FANCG (UniProt O15287)	inactive: 0

Later entries:

Target	dose-dependent thermal stabilisation call
FBXO33 (UniProt Q7Z6M2)	inactive: 0
FAM91A1 (UniProt Q658Y4)	inactive: 0
FIS1 (UniProt Q9Y3D6)	inactive: 0
FAM98A (UniProt Q8NCA5)	inactive: 0
FAM96A (UniProt Q9H5X1)	inactive: 0
FDFT1 (UniProt P37268)	inactive: 0
FKBPL (UniProt Q9UIM3)	inactive: 0
GLG1 (UniProt Q92896)	inactive: 0
FBXO28 (UniProt Q9NVF7)	inactive: 0
GAA (UniProt P10253)	inactive: 0
FNBP1 (UniProt Q96RU3)	inactive: 0
FUK (UniProt Q8N0W3)	inactive: 0
FKBP7 (UniProt Q9Y680)	inactive: 0
GINS1 (UniProt Q14691)	inactive: 0
GIGYF2 (UniProt Q6Y7W6)	inactive: 0
GALK1 (UniProt P51570)	inactive: 0
FNTB (UniProt P49356)	inactive: 0
GABPA (UniProt Q06546)	inactive: 0
FBL (UniProt P22087)	inactive: 0
GGT7 (UniProt Q9UJ14)	inactive: 0
